The assay deals with GFP-hCIB2 (calcium and integrin binding protein 2) (human) (UniProt O75838). Kind of assay: NanoSPD.

Sequences of proteins named here, by UniProt entry; tags and fusion partners are left off.
UniProt O75838: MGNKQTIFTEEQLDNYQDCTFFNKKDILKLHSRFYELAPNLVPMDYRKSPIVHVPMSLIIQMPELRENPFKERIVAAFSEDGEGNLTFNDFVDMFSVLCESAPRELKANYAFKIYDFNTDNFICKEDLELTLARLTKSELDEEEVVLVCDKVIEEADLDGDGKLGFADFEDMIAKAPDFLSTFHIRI

These are yes or no findings as the source states them, for the method shown. Sequences can lack the tags named with a protein.

B1: FLAG-tagged TSC1 (protein, UniProt Q92574 1-1164)
chain: MAQQANVGELLAMLDSPMLGVRDDVTAVFKENLNSDRGPMLVNTLVDYYLETSSQPALHILTTLQEPHDKHLLDRINEYVGKAATRLSILSLLGHVIRLQPSWKHKLSQAPLLPSLLKCLKMDTDVVVLTTGVLVLITMLPMIPQSGKQHLLDFFDIFGRLSSWCLKKPGHVAEVYLVHLHASVYALFHRLYGMYPCNFVSFLRSHYSMKENLETFEEVVKPMMEHVRIHPELVTGSKDHELDPRRWKRLETHDVVIECAKISLDPTEASYEDGYSVSHQISARFPHRSADVTTSPYADTQNSYGCATSTPYSTSRLMLLNMPGQLPQTLSSPSTRLITEPPQATLWSPSMVCGMTTPPTSPGNVPPDLSHPYSKVFGTTAGGKGTPLGTPATSPPPAPLCHSDDYVHISLPQATVTPPRKEERMDSARPCLHRQHHLLNDRGSEEPPGSKGSVTLSDLPGFLGDLASEEDSIEKDKEEAAISRELSEITTAEAEPVVPRGGFDSPFYRDSLPGSQRKTHSAASSSQGASVNPEPLHSSLDKLGPDTPKQAFTPIDLPCGSADESPAGDRECQTSLETSIFTPSPCKIPPPTRVGFGSGQPPPYDHLFEVALPKTAHHFVIRKTEELLKKAKGNTEEDGVPSTSPMEVLDRLIQQGADAHSKELNKLPLPSKSVDWTHFGGSPPSDEIRTLRDQLLLLHNQLLYERFKRQQHALRNRRLLRKVIKAAALEEHNAAMKDQLKLQEKDIQMWKVSLQKEQARYNQLQEQRDTMVTKLHSQIRQLQHDREEFYNQSQELQTKLEDCRNMIAELRIELKKANNKVCHTELLLSQVSQKLSNSESVQQQMEFLNRQLLVLGEVNELYLEQLQNKHSDTTKEVEMMKAAYRKELEKNRSHVLQQTQRLDTSQKRILELESHLAKKDHLLLEQKKYLEDVKLQARGQLQAAESRYEAQKRITQVFELEILDLYGRLEKDGLLKKLEEEKAEAAEAAEERLDCCNDGCSDSMVGHNEEASGHNGETKTPRPSSARGSSGSRGGGGSSSSSSELSTPEKPPHQRAGPFSSRWETTMGEASASIPTTVGSLPSSKSFLGMKARELFRNKSESQCDEDGMTSSLSESLKTELGKDLGVEAKIPLNLDGPHPSPPTPDSVGQLHIMDYNETHHEHS
In the case of B1, the binding result is “no binding”.

The values above are taken from doi:10.1101/2020.09.18.302265.
